Nine molecules from patent US20210070855A1 can be followed below.

Chains of the proteins cited; added tags and fusions are not shown. Lines headed by an entry give the natural chain unless they say otherwise; changes in a name come on top.
UniProt Q08722: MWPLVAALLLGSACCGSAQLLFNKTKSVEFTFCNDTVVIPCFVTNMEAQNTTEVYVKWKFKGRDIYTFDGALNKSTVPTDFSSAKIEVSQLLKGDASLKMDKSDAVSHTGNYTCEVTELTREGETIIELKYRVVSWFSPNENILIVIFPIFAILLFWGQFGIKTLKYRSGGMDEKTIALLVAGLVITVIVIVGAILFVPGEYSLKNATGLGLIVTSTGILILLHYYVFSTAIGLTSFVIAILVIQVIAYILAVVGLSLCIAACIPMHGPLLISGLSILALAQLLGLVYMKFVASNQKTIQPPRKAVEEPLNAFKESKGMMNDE

For assay [1], the target named is human CD47-His protein (human) (UniProt Q08722). Put plainly: SPR (Biacore T200), antibody captured on the chip, human CD47-His as analyte. A general note: In SPR one partner is held on a chip, and binding of the other changes the refractive index at the surface.
The target in assay [2] is cynomolgus monkey CD47 on CHO-K1 cells (cynomolgus monkey). Put plainly: flow cytometry on CHO-K1/cyno CD47 cells.
The target of assay [3] is CD47 protein. Put plainly: ELISA on CD47 protein; x axis is log10 of mAb (ng/ml).
The target in assay [4] is cynomolgus monkey CD47 on CHO-K1 cells (cynomolgus monkey). In words: flow cytometry on CHO-K1/cynoCD47 cells. (In general: In flow cytometry, cells or beads pass a laser one at a time.)

Where a chain is given by its changes, count along the chain named. Results are given in words; binding and its absence hold for the method and conditions named. Some binding calls cover weakened binding; strength is not graded here.

B1: 107F11C4 (antibody, V domains shown)
VH: EVQLQQSGAEFVKPGASVKLSCTASGFNIEDTYMHWVKQRPEQGLEWIGMIDPANGKTKYGPRFQDKATVTADTSSNTANLQLSSLTSEDTAVYYCADGIGYYVGAMDYWGQGTSVTVSS
VL: DIQMNQSPSSLSASLGDTITITCHASQNINVWLSWYQQKPGNIPKLLIYKASNLHTGVPSRFSGSGSGTGFTLTISSLQPEDIATYYCQQGHSYPYTFGGGTKLEIK
With B1, the binding entry in assay [1] was “binds”.

B2: 107F11B11 (antibody, V domains shown)
VH: B1 VH
VL: B1 VL
For the molecule B2, the binding entry in assay [2], in assay [3] and in assay [1] was “binds” each time.

B3: 107F11F10 (antibody, V domains shown)
VH: B1 VH
VL: B1 VL
On to B3, for which the binding entry in assay [1] is “binds”.

B4: 108VH4.M4_VL1.M1-hIgG2 (antibody)
heavy: EVQLVQSGAEVKKPGSSVKVSCKASGYSFTHHWIHWVRQAPGQGLEWMGMIDASDSETRLSQKFKDRVTITADKSTSTAYMELSSLRSEDTAVYYCARLGRYYFDYWGQGTTVTVSSASTKGPSVFPLAPCSRSTSESTAALGCLVKDYFPEPVTVSWNSGALTSGVHTFPAVLQSSGLYSLSSVVTVPSSNFGTQTYTCNVDHKPSNTKVDKTVERKCCVECPPCPAPPVAGPSVFLFPPKPKDTLMISRTPEVTCVVVDVSHEDPEVQFNWYVDGVEVHNAKTKPREEQFNSTFRVVSVLTVVHQDWLNGKEYKCKVSNKGLPAPIEKTISKTKGQPREPQVYTLPPSREEMTKNQVSLTCLVKGFYPSDIAVEWESNGQPENNYKTTPPMLDSDGSFFLYSKLTVDKSRWQQGNVFSCSVMHEALHNHYTQKSLSLSPGK
light: EIVLTQSPATLSLSPGERATLSCRASENVGTYISWYQQKPGQAPRLLIYGASNRYTGIPARFSGSGSGTDFTLTISSLEPEDFAVYYCGESYGHLYTFGGGTKVEIKRTVAAPSVFIFPPSDEQLKSGTASVVCLLNNFYPREAKVQWKVDNALQSGNSQESVTEQDSKDSTYSLSSTLTLSKADYEKHKVYACEVTHQGLSSPVTKSFNRGEC
Consider B4, for which, in assay [4], the binding result is “binds”.

B5: 98G5F11 (antibody, V domains shown)
VH: QVQLQQSGPQLVRPGASVKISCKASGYSFTNYWMHWMKQRPGQGLEWIGMIDPSDSETRLNQQFKDKATLTVDKSSSTAYMQLSSPTSEDSAVYYCARLGRYYFDFWGQGTTLTVSS
VL: NIVMTQSPKSMSVSVGERVTLSCRASEIVGTYVSWYQQKPEQSPKLLIYGASNRFTGVPDRFTGSRSATDFSLTISNVQAEDLADYLCGQSYDSPYTFGGGTKLEIK
With B5, the binding entry in assay [2], in assay [3] and in assay [1] was “binds” throughout.

B6: 98G5F6 (antibody, V domains shown)
VH: B5 VH
VL: B5 VL
Turning to B6, the binding entry in assay [2] and in assay [1] was “binds” throughout.

B7: 98E2E12 (antibody, V domains shown)
VH: B5 VH with Y32H, Y94F, F106Y
VL: B5 VL with E27D, F55Y
For B7, in assay [2], the binding entry was “binds”.

B8: 98E2E7 (antibody, V domains shown)
VH: B5 VH with Y32H, Y94F, F106Y
VL: B5 VL with E27D, F55Y
As to B8, the binding entry in assay [2] was “binds”.

B9: 112E5F2 (antibody, V domains shown)
VH: B5 VH with Y32N, K65R, S75T, F106Y, Q109L
VL: B5 VL with L21M, S22N, S52F, F55Y, A68G, T74N
For B9, the binding result in assay [3] was “binds”.
